Patent US9265764B2, “Uses of chemicals to modulate GSK-3 signaling for treatment of bipolar disorder and other brain disorders” (Massachusetts Institute of Technology, priority 2009, dated 2016)
At least one structure is not confirmed: it was looked up by name or label, or the drawing left a doubt.

System: βCat-eGFP reporter in human U2OS cells
Assay: Cellular β-catenin stability assay (βCat-eGFP reporter)
Assay type: cell-based
Procedure: Cellular-β-Catenin Stability Assay: To study effects of small molecules on GSK-3/β-catenin signaling in cells, we optimized an image-based assay that measures β-catenin stability. This assay uses human U2OS cells engineered to express a genetically encoded fluorescent reporter consisting of a fusion of β-catenin to enhanced green fluorescent protein (eGFP) that were obtained from Thermo Fisher Scientific (Denmark). […] Lithium treatments at 10 mM and valproic acid at 10 mM also have the same effect in this assay. […] Cells were imaged on an ImageXpress Micro (Molecular Devices) automated microscope at 10× magnification with detection of both DNA and eGFP fluorescence. The percentage of eGFP positive cells was calculated and compared to an untreated control.

Row | Compound | β-catenin accumulation
1 | CO[C@@H]1[C@H](N(C)C(=O)c2ccccc2)C[C@H]2O[C@]1(C)n1c3ccccc3c3c4c(c5c6ccccc6n2c5c31)C(=O)NC4 [midostaurin] | able to cause β-catenin accumulation
2 | CCN(CC)CCNC(=O)c1c(C)[nH]c(/C=C2\C(=O)Nc3ccc(F)cc32)c1C [sunitinib] | able to cause β-catenin accumulation
